Laboratory results reported in paper doi:10.1101/2020.02.26.964981.
No constants are given. Whether binding was seen depends on the method and setting. In cells and extracts the contact can be indirect. Some entries that bind do so weakly or less than the wild type.

Amino acid sequences for entries named in this document (tags omitted).
UniProt Q3TKT4: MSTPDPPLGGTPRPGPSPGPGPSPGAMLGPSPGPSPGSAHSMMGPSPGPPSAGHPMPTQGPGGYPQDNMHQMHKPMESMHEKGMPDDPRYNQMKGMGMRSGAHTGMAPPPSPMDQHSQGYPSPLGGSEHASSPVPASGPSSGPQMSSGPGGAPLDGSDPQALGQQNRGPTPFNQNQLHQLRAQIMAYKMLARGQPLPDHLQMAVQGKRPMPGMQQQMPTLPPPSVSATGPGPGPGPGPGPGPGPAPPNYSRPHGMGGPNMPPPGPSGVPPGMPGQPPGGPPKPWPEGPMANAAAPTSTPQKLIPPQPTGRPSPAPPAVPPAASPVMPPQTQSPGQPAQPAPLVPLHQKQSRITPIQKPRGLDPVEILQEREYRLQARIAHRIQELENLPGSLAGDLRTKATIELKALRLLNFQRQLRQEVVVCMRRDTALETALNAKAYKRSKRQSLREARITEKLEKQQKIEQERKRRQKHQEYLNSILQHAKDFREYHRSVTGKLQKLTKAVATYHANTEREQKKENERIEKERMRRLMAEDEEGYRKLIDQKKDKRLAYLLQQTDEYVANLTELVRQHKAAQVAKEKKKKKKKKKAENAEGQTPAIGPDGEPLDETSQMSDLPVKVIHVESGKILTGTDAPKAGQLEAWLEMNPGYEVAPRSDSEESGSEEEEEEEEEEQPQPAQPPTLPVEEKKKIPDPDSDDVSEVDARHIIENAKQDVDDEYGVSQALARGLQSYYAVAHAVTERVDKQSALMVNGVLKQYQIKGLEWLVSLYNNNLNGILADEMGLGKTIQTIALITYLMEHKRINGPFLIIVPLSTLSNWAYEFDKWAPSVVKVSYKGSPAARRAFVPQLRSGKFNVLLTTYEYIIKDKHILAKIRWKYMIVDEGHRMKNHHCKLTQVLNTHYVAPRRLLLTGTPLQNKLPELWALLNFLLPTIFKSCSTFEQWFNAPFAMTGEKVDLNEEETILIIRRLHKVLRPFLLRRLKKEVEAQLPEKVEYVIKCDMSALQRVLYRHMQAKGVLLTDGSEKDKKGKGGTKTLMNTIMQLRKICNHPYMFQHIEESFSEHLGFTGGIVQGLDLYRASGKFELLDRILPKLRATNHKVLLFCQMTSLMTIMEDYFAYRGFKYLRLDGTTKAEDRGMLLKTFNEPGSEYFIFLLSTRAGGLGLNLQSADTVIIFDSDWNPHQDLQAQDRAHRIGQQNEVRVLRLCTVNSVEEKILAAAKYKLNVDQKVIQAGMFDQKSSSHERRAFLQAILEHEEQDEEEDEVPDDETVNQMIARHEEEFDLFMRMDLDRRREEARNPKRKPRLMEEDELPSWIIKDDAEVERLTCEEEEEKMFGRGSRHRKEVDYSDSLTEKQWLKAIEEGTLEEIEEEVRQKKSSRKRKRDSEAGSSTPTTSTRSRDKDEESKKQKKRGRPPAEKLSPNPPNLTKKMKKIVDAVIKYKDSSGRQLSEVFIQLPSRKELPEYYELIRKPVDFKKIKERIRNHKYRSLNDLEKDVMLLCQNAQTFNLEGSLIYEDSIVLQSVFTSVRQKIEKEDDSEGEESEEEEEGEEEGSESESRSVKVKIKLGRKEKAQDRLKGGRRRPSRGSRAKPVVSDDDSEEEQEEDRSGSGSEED
UniProt Q8BSQ9: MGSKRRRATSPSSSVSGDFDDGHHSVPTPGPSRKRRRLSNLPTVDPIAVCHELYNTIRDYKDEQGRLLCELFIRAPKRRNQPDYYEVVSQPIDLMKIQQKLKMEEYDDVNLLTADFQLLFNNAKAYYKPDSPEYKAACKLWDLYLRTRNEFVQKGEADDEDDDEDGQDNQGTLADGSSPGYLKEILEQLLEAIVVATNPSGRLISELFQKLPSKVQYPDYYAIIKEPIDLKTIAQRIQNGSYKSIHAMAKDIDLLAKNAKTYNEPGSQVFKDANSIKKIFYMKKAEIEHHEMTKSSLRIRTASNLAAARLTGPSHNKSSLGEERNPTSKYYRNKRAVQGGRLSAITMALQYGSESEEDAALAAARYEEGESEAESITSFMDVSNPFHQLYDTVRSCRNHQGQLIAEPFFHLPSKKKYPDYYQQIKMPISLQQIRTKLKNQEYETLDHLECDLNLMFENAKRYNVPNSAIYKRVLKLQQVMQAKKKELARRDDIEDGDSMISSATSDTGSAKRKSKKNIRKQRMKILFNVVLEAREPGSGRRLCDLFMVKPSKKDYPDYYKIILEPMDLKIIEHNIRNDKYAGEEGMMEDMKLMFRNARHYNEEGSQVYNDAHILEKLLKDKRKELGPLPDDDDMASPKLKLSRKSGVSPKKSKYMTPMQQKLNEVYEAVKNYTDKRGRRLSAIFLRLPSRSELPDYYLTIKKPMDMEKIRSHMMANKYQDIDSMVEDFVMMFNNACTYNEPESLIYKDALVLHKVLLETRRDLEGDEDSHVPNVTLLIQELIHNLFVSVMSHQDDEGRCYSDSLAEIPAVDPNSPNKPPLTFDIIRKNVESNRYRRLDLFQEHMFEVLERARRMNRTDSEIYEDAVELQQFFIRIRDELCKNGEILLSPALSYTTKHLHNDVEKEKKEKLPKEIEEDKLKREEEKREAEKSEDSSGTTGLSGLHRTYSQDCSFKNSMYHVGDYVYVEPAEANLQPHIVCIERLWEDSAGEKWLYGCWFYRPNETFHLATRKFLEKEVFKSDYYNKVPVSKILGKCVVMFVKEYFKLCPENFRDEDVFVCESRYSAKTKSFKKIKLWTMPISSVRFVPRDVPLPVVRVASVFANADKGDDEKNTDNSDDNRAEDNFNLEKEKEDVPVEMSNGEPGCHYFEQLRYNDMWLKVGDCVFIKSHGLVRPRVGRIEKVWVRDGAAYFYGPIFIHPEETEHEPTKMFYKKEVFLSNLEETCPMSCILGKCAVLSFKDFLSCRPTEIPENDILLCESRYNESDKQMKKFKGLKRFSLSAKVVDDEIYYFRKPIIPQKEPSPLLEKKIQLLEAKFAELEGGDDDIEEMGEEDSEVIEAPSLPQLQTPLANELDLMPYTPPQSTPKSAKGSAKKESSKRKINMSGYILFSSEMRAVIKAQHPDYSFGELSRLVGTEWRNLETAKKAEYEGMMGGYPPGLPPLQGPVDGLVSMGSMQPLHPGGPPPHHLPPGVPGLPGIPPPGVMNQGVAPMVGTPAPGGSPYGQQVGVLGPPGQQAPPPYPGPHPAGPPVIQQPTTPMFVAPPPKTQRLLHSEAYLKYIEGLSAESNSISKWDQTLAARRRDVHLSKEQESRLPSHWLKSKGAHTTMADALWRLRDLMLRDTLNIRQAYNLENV
UniProt P97496: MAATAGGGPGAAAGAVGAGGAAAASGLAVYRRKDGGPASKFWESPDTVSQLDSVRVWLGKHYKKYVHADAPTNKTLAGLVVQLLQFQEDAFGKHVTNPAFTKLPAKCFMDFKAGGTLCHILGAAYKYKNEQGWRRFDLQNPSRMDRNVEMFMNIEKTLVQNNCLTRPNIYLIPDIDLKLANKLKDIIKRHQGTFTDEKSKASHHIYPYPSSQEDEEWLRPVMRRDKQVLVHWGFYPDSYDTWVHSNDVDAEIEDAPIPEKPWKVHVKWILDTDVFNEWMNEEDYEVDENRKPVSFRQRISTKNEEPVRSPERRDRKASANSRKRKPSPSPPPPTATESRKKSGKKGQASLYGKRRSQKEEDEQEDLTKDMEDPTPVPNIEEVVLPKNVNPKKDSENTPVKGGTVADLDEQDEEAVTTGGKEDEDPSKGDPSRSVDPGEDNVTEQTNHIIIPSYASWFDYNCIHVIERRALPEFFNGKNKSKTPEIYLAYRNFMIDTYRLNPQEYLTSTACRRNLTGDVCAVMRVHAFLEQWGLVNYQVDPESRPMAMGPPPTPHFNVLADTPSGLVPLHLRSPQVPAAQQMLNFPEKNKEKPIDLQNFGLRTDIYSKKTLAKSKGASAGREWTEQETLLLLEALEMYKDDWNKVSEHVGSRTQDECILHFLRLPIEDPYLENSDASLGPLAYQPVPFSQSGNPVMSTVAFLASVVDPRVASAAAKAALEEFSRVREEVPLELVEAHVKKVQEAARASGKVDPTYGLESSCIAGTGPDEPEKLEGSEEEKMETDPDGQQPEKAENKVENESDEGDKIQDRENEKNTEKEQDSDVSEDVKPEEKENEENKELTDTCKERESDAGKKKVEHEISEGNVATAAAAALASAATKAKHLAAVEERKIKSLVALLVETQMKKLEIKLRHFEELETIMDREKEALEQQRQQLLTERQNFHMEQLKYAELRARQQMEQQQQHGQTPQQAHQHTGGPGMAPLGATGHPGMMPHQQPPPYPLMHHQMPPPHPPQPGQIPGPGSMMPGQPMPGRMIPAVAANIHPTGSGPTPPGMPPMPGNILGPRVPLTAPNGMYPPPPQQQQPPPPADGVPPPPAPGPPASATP

B1: BRD9 (protein, UniProt Q3UQU0 1-596)
chain: MGKKHKKHKAEWRSSYEDYTDTPLEKPLKLVLKVGGSEVTELSGSGHDSSYYDDRSDHERERHREKKKKKKKKSEKEKHLDEEERRKRKEEKKRKREKEHCDSEGEADAFDPGKKVEVEPPPDRPVRACRTQPAENESTPIQRLLEHFLRQLQRKDPHGFFAFPVTDAIAPGYSMIIKHPMDFGTMKDKIVANEYKSVTEFKADFKLMCDNAMTYNRPDTVYYKLAKKILHAGFKMMSKAALLGSEDPAAEEPVPEVVPVQVETTKKSKKPSREVISCMFEPEGNACSLTDSTAEEHVLALVEHAADEARDRINRFLPGGKMGYLKKLGDGSLLYSVVNAPEPDADEEETHPVDLSSLSSKLLPGFTTLGFKDERRNKVTFLSSASTALSMQNNSVFGDLKSDEMELLYSAYGDETGVQCALSLQEFVKDAGSYSKKMVDDLLDQITGGDHSRMIFQLKQRRSIPMRPADEMKVGDPLGESGGPVLDFMSMKQYPDVSLDVSMLSSLGKVKKELDHEDSHLNLDETARLLQDLHEAQAERGGSRPSSNLSSLSTASEREHPPPGSPSRLSVGEQPDVAHDPYEFLQSPEPAAPAKN

The molecules below were run against SMARCA4 (mouse (endogenous in Tregs)) (UniProt Q3TKT4) (assay: co-IP).

binding, binds:
ARID1A (from UniProt A2BH40 1-2283)
PBRM1 (from UniProt Q8BSQ9 1-1634)
SMARCC1 (from UniProt P97496 1-1104)
B1
